Measured values from PMC7819943, “Rice protein-binding microarrays: a tool to detect cis-acting elements near promoter regions in rice”.
Some of the results follow.

The sequences below were run against T1, OsSMF1 (Oryza sativa, UniProt Q6ZLB0 1-436) (assay: protein-binding microarray (RPBM); PBS, 2% BSA, 51.3 ng/ul salmon testes DNA, 50 uM zinc acetate, 200 nM TF, 25 C, 1 h; high values mean tight binding). Details: protein: recombinant; tags: N-terminal polyhistidine and DsRed monomer fusion (pET32a); chain copies: 2; label: CyDye5-dUTP incorporated in the synthesized complementary strand; 3' TTTTT single-stranded linker to array surface; dsDNA, one strand shown.
T1 sequence: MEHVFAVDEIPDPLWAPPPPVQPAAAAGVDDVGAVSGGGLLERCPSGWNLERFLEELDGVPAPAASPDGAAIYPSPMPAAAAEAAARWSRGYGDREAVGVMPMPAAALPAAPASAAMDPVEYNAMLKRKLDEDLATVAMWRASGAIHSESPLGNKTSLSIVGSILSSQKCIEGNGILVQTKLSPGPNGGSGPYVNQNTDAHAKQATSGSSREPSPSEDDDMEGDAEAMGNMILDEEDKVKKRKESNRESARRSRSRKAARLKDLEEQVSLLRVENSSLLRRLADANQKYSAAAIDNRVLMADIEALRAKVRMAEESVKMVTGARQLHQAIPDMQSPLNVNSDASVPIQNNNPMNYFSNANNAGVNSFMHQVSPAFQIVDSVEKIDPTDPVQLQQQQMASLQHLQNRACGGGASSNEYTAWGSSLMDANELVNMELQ
Summary of the method: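 An Axon 4000B scanner gave the binding signal as per-feature fluorescence intensity in arbitrary units. This followed washing of a custom Agilent array that had been incubated for 1 h at 25 °C with 200 nM protein in PBS, 2% BSA, salmon testes DNA and 50 µM zinc acetate. The proteins were transcription factors fused at the N-terminus to polyhistidine and DsRed, expressed in E. coli BL21-CodonPlus and purified on Ni–NTA.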

Sequence	binding signal
GTTTGGCCAATTGTCACCACCCAGCGTGTACGTACAACACCGGAGTCACCTAGTGCAG	3330 fluorescence intensity (a.u.)
GCTCTGTATATTGATTTGGTCAGTTGGATTAGGTCAACGACGGAGTCACCTAGTGCAG	3460 fluorescence intensity (a.u.)
AAACTGGCAAACGCGTCACATGAGTTTTACCTACCAATGTCGGAGTCACCTAGTGCAG	3230 fluorescence intensity (a.u.)
TGACAGGTGGGACCAGATATTAATAGTGTAGTATATCACTCGGAGTCACCTAGTGCAG	7080 fluorescence intensity (a.u.)
ATTTGGGGATCTCAGAAATTGTTATATTTTCAGACTGAGGCGGAGTCACCTAGTGCAG	19200 fluorescence intensity (a.u.)
ATCAGCAATCAGATCAGTACATCATCAAAGGGTGTGTAGTCGGAGTCACCTAGTGCAG	3580 fluorescence intensity (a.u.)
GGCCTCGCCGACCCCGTCACCAACATCATCCTCAACGCCGCGGAGTCACCTAGTGCAG	5900 fluorescence intensity (a.u.)
CCGCCGCTCCGCCTCCGCCGCATGCCGCGCGCCAAGGCCGCGGAGTCACCTAGTGCAG	3140 fluorescence intensity (a.u.)
CACAGAGTCAGAGTCAAATTACACCTGAGTTGGCAAAGTCCGGAGTCACCTAGTGCAG	5250 fluorescence intensity (a.u.)
TGGGACTGCGGCCCCACCTGTCAGCGAAGGGTTGAACTCCCGGAGTCACCTAGTGCAG	3900 fluorescence intensity (a.u.)
GAATTAATGTTCAACTTTGATCAACCTTACTTAGTCACATCGGAGTCACCTAGTGCAG	4200 fluorescence intensity (a.u.)
CGCGCCACGTAGCACACCCCTCCCTAGCCCCTACGCCGGCCGGAGTCACCTAGTGCAG	10100 fluorescence intensity (a.u.)
GGAAAGAGAGAGAGGGTGACGTGGACAACTGATTTGTGGGCGGAGTCACCTAGTGCAG	18700 fluorescence intensity (a.u.)
ATTATGTGCCACATCAAAATCTAAGTGGTTTTGTGTAAGTCGGAGTCACCTAGTGCAG	3940 fluorescence intensity (a.u.)
GCAGAAAGGGACACTGCAGCAGCATATTGTTGCTGTGTATCGGAGTCACCTAGTGCAG	8380 fluorescence intensity (a.u.)
TGACATGACAAGTCACAGCCAACTTCTCAGAGTGTTAATACGGAGTCACCTAGTGCAG	3860 fluorescence intensity (a.u.)
GGTTCAGGGTACTTTTGGTACACCTCAGCTATTATGAGAGCGGAGTCACCTAGTGCAG	7550 fluorescence intensity (a.u.)
TTCCTGTAGATCGAGATGGCCTCGCTGTTCCAGCATCACCCGGAGTCACCTAGTGCAG	3480 fluorescence intensity (a.u.)
GCACGACATTTACTACGTGTATAGGTCAACGCTTAACCCTCGGAGTCACCTAGTGCAG	5470 fluorescence intensity (a.u.)
TGAGCCAATTTCCTTCTCCTCGTTCTCAAGATTGAGGACACGGAGTCACCTAGTGCAG	18400 fluorescence intensity (a.u.)
GTATCAAAACATATTCAATCATAGATTTAATGAAAACTAACGGAGTCACCTAGTGCAG	3360 fluorescence intensity (a.u.)

Pulled one by one from above (three):
Sequence	binding signal
GGTTCAGGGTACTTTTGGTACACCTCAGCTATTATGAGAGCGGAGTCACCTAGTGCAG	7550 fluorescence intensity (a.u.)
TGAGCCAATTTCCTTCTCCTCGTTCTCAAGATTGAGGACACGGAGTCACCTAGTGCAG	18400 fluorescence intensity (a.u.)
GCAGAAAGGGACACTGCAGCAGCATATTGTTGCTGTGTATCGGAGTCACCTAGTGCAG	8380 fluorescence intensity (a.u.)

(further entries)

Sequence	binding signal
GACGAAGCTCTCCACCGGCGTGGTCCGTGGCAGCTACGGCCGGAGTCACCTAGTGCAG	27300 fluorescence intensity (a.u.)
ATCCGATGTGTTAGATCGGACGTCCCACATGGGCGCGTGTCGGAGTCACCTAGTGCAG	3440 fluorescence intensity (a.u.)
TGTTTACTACACATCAGACGAAAACCACATCGGATTGATTCGGAGTCACCTAGTGCAG	4220 fluorescence intensity (a.u.)
GAATTACCCAATTTACAGTTTTACACACGCAAATACTACCCGGAGTCACCTAGTGCAG	4640 fluorescence intensity (a.u.)
CAGCACGATGGGTCGGCCAGGCACGGAGCAAAATAGACAACGGAGTCACCTAGTGCAG	35700 fluorescence intensity (a.u.)
CGAGGTGAGAGGGGAGTGCGGCGATGGGAGGTGGGCGACGCGGAGTCACCTAGTGCAG	4440 fluorescence intensity (a.u.)
CACGTTGGAGCCATATGTATATATCGATGAGTCATCGATCCGGAGTCACCTAGTGCAG	17600 fluorescence intensity (a.u.)
CTTTCAATTCGTGGTGGCGTTGGTAGTAAAATTGACTCAACGGAGTCACCTAGTGCAG	22400 fluorescence intensity (a.u.)
GATCTATCTCAATCAACCCACGTGGCCTCACCTCGCCGGACGGAGTCACCTAGTGCAG	14100 fluorescence intensity (a.u.)
CCATGTGATTATATGGGCCAACCCTGAGCCGCTGACGTGGCGGAGTCACCTAGTGCAG	26600 fluorescence intensity (a.u.)
CCCTAGTAGTTGCTGTCTTGCTGACGAAGTTCATTTGGTGCGGAGTCACCTAGTGCAG	6660 fluorescence intensity (a.u.)
TAACCATTTTAAGCACACATGGCAGTGTCATCATCTTGAGCGGAGTCACCTAGTGCAG	3860 fluorescence intensity (a.u.)
GATGCCCTCGACGTCGCCGTGTCATGTCTAATGGAAGAATCGGAGTCACCTAGTGCAG	3310 fluorescence intensity (a.u.)
CCGAACCTTCAGATTAATATCTCTGCACGTCGTCGGTTGACGGAGTCACCTAGTGCAG	4320 fluorescence intensity (a.u.)
GGTTAGGGTGGTATACGTCATTACATTTACACCCCACCGCCGGAGTCACCTAGTGCAG	8050 fluorescence intensity (a.u.)
ATCGAGTATTAGATTATCATATACAATCTCGTGCTGCATCCGGAGTCACCTAGTGCAG	8560 fluorescence intensity (a.u.)
TCTACACGGCACGTCGACGTGTCGTGTCGCGGGCCGACCCCGGAGTCACCTAGTGCAG	10600 fluorescence intensity (a.u.)
GGAGAGCCGACGATGACGGCGGCCACGGCGCGCGGCTGCTCGGAGTCACCTAGTGCAG	3390 fluorescence intensity (a.u.)
CTTCTACGACGTCAGCCTCGTCGACGGCTACAACCTCCCCCGGAGTCACCTAGTGCAG	3600 fluorescence intensity (a.u.)
TAATACTTGGTCCCACCTGTCATACACACATTACGTCATGCGGAGTCACCTAGTGCAG	8120 fluorescence intensity (a.u.)
CTCATGATAGAACCCTCCAAAGTTTGTGTTAAACATGTCACGGAGTCACCTAGTGCAG	3620 fluorescence intensity (a.u.)

Sequence	binding signal
TGGCGCCGAGGCCGTGATCCGCAGCGGAGGTGACGAGGCGCGGAGTCACCTAGTGCAG	6370 fluorescence intensity (a.u.)
CTACAGCCTACAGCCTCTAATAGGCTATCCGTGACGAGATCGGAGTCACCTAGTGCAG	3450 fluorescence intensity (a.u.)
CGCCTCTCCCCACGCGACTGGACACGTGTCGTGCGCGGAGCGGAGTCACCTAGTGCAG	16000 fluorescence intensity (a.u.)
CCTCGTTCGCTCGCTTTGGCGTACGTGGCCTCTGCTACTTCGGAGTCACCTAGTGCAG	6440 fluorescence intensity (a.u.)
AAACGAGTGATCTGCAAGTTTGGGGACCGGGATGACACAGCGGAGTCACCTAGTGCAG	4960 fluorescence intensity (a.u.)
CATTTGCTATACAACTTTAGTACCGGTTCTCTCAATCTGGCGGAGTCACCTAGTGCAG	4340 fluorescence intensity (a.u.)
GGAGGAGGTTGGATGACGTCATGGTGCGAGGTAGGTGGCCCGGAGTCACCTAGTGCAG	22000 fluorescence intensity (a.u.)
GTCGACGTGTCCTACTCATCCACGCCACGTAACCAATTCCCGGAGTCACCTAGTGCAG	18400 fluorescence intensity (a.u.)
TATCCGTGTGGCATGTCACTTTAGTGTCCATGTGGCATACCGGAGTCACCTAGTGCAG	4060 fluorescence intensity (a.u.)
TTATGACATGTGTACCATCATGTGTCTATAACATATGAGTCGGAGTCACCTAGTGCAG	3470 fluorescence intensity (a.u.)
GAGATAAAGAAGAGCGTGTTGTCACTAGCAAATATCCAACCGGAGTCACCTAGTGCAG	3370 fluorescence intensity (a.u.)
AAAGCTTAAACCTGAGCGCTGGCATGACATGATCAGCCTGCGGAGTCACCTAGTGCAG	3730 fluorescence intensity (a.u.)
CCCCGCCGGTCAGTGTCAGCTGTGGTCACGGCAGTCCCCGCGGAGTCACCTAGTGCAG	3440 fluorescence intensity (a.u.)
CCACGGGTAAACGGGCAAATTGGCATAATTGCCATCCCTACGGAGTCACCTAGTGCAG	3640 fluorescence intensity (a.u.)
ATGAGGCCCATGACTCTTCGCCCGGACTTTCTTCCCCTTGCGGAGTCACCTAGTGCAG	3180 fluorescence intensity (a.u.)
CGCGCAGCGGGCGCTTTGGTTGCATCTGTCACGGAATCTACGGAGTCACCTAGTGCAG	26400 fluorescence intensity (a.u.)
CTACCCGTGATGGCGTCATTATGATGTGTTTCAGTCTGTACGGAGTCACCTAGTGCAG	12800 fluorescence intensity (a.u.)
GTCCGGGCGAGCGTGTGGCTCACGGCGACGTCGAGCGGGTCGGAGTCACCTAGTGCAG	25500 fluorescence intensity (a.u.)
CATCTCATTCGAATTAATTCATATGACGTCATAAAGCCCCCGGAGTCACCTAGTGCAG	14600 fluorescence intensity (a.u.)
TTCTGCCAGCAGTGCAGCAGGTCAGCCACTCAGCCCTCCTCGGAGTCACCTAGTGCAG	6770 fluorescence intensity (a.u.)
TACTTTCGGACGAAGTGGATCAAGCTGCGTTCTACTCCCTCGGAGTCACCTAGTGCAG	24400 fluorescence intensity (a.u.)

Sequence	binding signal
CGCGTGGACAACCGGCACGTACCGCGTCAGGGTCTTACGTCGGAGTCACCTAGTGCAG	3530 fluorescence intensity (a.u.)
ATACTATTTATTTTACTAACATTAATATCAATGTACTATTCGGAGTCACCTAGTGCAG	24700 fluorescence intensity (a.u.)
AGTCCCCGCGGCCCACCTAACGTCCCACGCGGCCTCGGTGCGGAGTCACCTAGTGCAG	3390 fluorescence intensity (a.u.)
ACTACACCGTCGCAGCGCACCCACGTGACACGCAGCCACACGGAGTCACCTAGTGCAG	4730 fluorescence intensity (a.u.)
TCACGCCTCTCTCTCTCTCTGCTCCCAAATCTGCGTGGGACGGAGTCACCTAGTGCAG	3250 fluorescence intensity (a.u.)
TTAATTACAAATTGATTTGATCACGTAGATAATTACATCACGGAGTCACCTAGTGCAG	37500 fluorescence intensity (a.u.)
GTAGGGGTCTCGAGGTGTTCAAGTGTGGATTACTCCATAGCGGAGTCACCTAGTGCAG	24900 fluorescence intensity (a.u.)
TCGGTAGAGAGGTGAGGTTGTGTGATTGCACATATATTTTCGGAGTCACCTAGTGCAG	3630 fluorescence intensity (a.u.)
ACAAATAAAATGCAACTAAATACAAGAATGTTTATATGAACGGAGTCACCTAGTGCAG	17600 fluorescence intensity (a.u.)
TTCTCCTTAGCGACGACGAGGCGGCGGGCGGCCACTCTCCCGGAGTCACCTAGTGCAG	3190 fluorescence intensity (a.u.)
AATCGAATTCAATCATGAAGAACGAGATAGCAACATTTAGCGGAGTCACCTAGTGCAG	16400 fluorescence intensity (a.u.)
GAGCCCCGCACGGCTCGCCCACCGCCGGCGACGTCAGCCGCGGAGTCACCTAGTGCAG	5310 fluorescence intensity (a.u.)
ATTAGATAGTACTAATACCTGATTAGACGCCGTCCCATTGCGGAGTCACCTAGTGCAG	3640 fluorescence intensity (a.u.)
GTTACGACAAGTGCCACAAACCAGCAGAAGCAAAGGTAGACGGAGTCACCTAGTGCAG	47900 fluorescence intensity (a.u.)
GGCATGACAGCGATCGGTGACGCCTTCTTCTCCATGGCCACGGAGTCACCTAGTGCAG	5730 fluorescence intensity (a.u.)
AAGAAAAGCCTGCGGACCCTAATTCTTTTAATAGTTTGGGCGGAGTCACCTAGTGCAG	26400 fluorescence intensity (a.u.)
GCCGCTGCGCTGGCCACCCCAGGCTCCACTCCGACGAGATCGGAGTCACCTAGTGCAG	3300 fluorescence intensity (a.u.)
AATCCGGCCTGCCACCGTTTCGTGTACTGCGTAACCGTGCCGGAGTCACCTAGTGCAG	5040 fluorescence intensity (a.u.)
AGTACAAATATCTGGGACCTTAGAGCATCCCATGAGCTCACGGAGTCACCTAGTGCAG	3640 fluorescence intensity (a.u.)
GTCCTTCCCGGCGAGGATGGGGAGGGTGGCCATGTCCCCGCGGAGTCACCTAGTGCAG	3590 fluorescence intensity (a.u.)
GTGATGTGCTCGCGTTGCGCACAGCTGCAGTCTAGCGTGGCGGAGTCACCTAGTGCAG	3430 fluorescence intensity (a.u.)
